Source: paper PMC7990796, “Efficacy of a Combined Antiplatelet Therapy Is Not Affected by a Simultaneous Binding of Cangrelor and PSB 0777 to Albumin” (Frontiers in Pharmacology, 2021)

Test system: platelets (platelet-rich plasma, isolated platelets)
Experiment: Inhibition of ADP-induced platelet activation (P-selectin/CD62P expression, flow cytometry)
Type: cell-based, human
Details: 17 nM
Method: Human blood was obtained from consecutively recruited healthy volunteers (simple random non-stratified sampling): four men and seven women; mean age 25 ± 5 years. All individuals provided their written informed consent to participate in the study. The exclusion criteria were the same as described previously ([Wzorek et al., 2020]). The study was approved by the Human Studies Committee of the Medical University of Lodz (Poland) and was conducted in accordance with the guidelines established by the Declaration of Helsinki. Whole blood was collected into polypropylene tubes with a blood-to-acid citrate dextrose solution (ACD) ratio of 6:1 (vol:vol).
Human platelet-rich plasma (PRP) was prepared by centrifuging of anticoagulated whole blood at 190 x g for 12 min at 37°C. […] Platelet count in PRP was measured with automated haematology analyzer Sysmex XS-800i™ (Sysmex, Kobe, Japan) and adjusted to 1 × 10^8 cells per ml. […]
The effect of plasma or HSA on inhibition of platelet activation by cangrelor was assessed by two-colour flow cytometry with the use of anti-CD61/PerCP (for platelet gating) and anti-CD62/PE (for detection of activated platelets). The antiplatelet activity of cangrelor was evaluated in PRP and suspensions of isolated platelets, when the effect of plasma was examined, or in isolated platelets containing 4% HSA, when the effect of albumin was studied. […]

For `CSCCNc1nc(SCCC(F)(F)F)nc2c1ncn2[C@@H]1O[C@H](COP(=O)(O)OP(=O)(O)C(Cl)(Cl)P(=O)(O)O)[C@@H](O)[C@H]1O` [cangrelor], the “difference in inhibition of platelet activation, PRP compared to isolated platelets” value (lower in PRP, p < 0.05) was 1.2 fold and the “difference in inhibition of platelet activation, platelets with HSA compared to controls” value (lower with 4% HSA, p < 0.01) was 1.3 fold.
